From PubChem BioAssay AID1487 (National Center for Advancing Translational Sciences (NCATS), 2009)
The list shows a part of the results. These are further read-outs of the screen, such as a control signal, another cell line or another target. No call is given for them. The list favours compounds with an active or inconclusive main result. The note in brackets gives the kind of curve behind each potency; many fits are weak.

Assay: qHTS Assay for Modulators of Lamin A Splicing
Conditions: HeLa LMNA splicing GFP/RFP minigene ratio, 48 h
Method in brief: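 Read-out is the ratio of GFP to DsRed2 object intensity, acquired by 488 nm laser-scanning cytometry on HeLa lamin A-EGFP minigene reporter cells. Compound incubation 48 hrs at 37 °C in Opti-MEM with 2% FBS; DMSO 0.5% final.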

[1] = measured here: GFP splicing reporter channel
[2] = measured here: RFP viability control channel

Row | Compound | AC50 [1] | AC50 [2]
1 | CN(C)c1ccc(N=Nc2ccccc2C(=O)OCC(=O)N(C)c2ccccc2)cc1 | 28.2 µM [rising, single point] | 22.4 µM [rising, partial curve, poor fit]
2 | Cc1ccccc1NC(=O)c1ccccc1O | 31.6 µM [rising, single point] | 31.6 µM [rising, single point]
3 | Cc1ccc(C2CCN(C(=O)c3cnn(-c4ccccc4Cl)c3C3CCN(C(=O)OC(C)(C)C)CC3)C2)cc1 (centres undefined) | 31.6 µM [falling, partial curve] | 35.5 µM [falling, partial curve]
4 | CCOC(=O)C1CCN(c2nc(C)cc(C)c2C#N)CC1 |  | 0.0891 µM [rising, full curve, poor fit]
5 | COc1cc(C2CC(=O)NC3=C2C(=O)CC(C)(C)C3)ccc1O (centres undefined) | 6.31 µM [rising, single point] | 
6 | COc1ccc(NC(=O)C(F)(OC)C(F)(F)F)c(OC)c1 (centres undefined) | 4.47 µM [falling, single point] | 
7 | O=C(Nc1ccn(-c2ccccc2)n1)c1ccc(S(=O)(=O)N2CCCCCC2)cc1 |  | 10 µM [rising, partial curve]
8 | O=C(CN1C(=O)c2cccc3cccc1c23)N1CCN(Cc2ccc3c(c2)OCO3)CC1 |  | 28.2 µM [rising, single point]
9 | CC1CCc2nc(NC(=O)CSc3nc4ccccc4o3)sc2C1 (centres undefined) | 6.31 µM [rising, full curve, poor fit] | 3.16 µM [rising, full curve]
10 | COc1cc(NC(=O)COc2ccc(-n3ccnc3)cc2)cc(OC)c1 | 14.1 µM [falling, partial curve, poor fit] | 
11 | COc1ccc(-n2c(C)cc(/C=C/c3nc(O)c([N+](=O)[O-])c(=O)[nH]3)c2C)cc1 |  | 0.282 µM [falling, full curve, poor fit]
12 | C/C(=N/NC(=O)Nc1ccccc1)c1ccc(C)cc1 | 35.5 µM [rising, single point] | 
13 | COc1cc2c(cc1OC)C(/C(C#N)=N\O)=NC(C)(C)C2 |  | 5.01 µM [rising, full curve, poor fit]
14 | COCCCNc1ncnc2c1c(-c1ccccc1)cn2-c1ccc(C)c(Cl)c1 | 10 µM [falling, partial curve] | 15.8 µM [falling, partial curve, poor fit]
15 | C=CCN(c1ccc(OC)cc1)S(=O)(=O)c1ccc(Cl)c(C(=O)OCC(=O)NC2CC2)c1 | 2.51 µM [falling, partial curve, poor fit] | 0.00316 µM [falling, full curve, poor fit]
16 | CCOC(=O)CCC(=O)Nc1ccc(S(=O)(=O)N2CCCCC2)cc1 |  | 0.01 µM [falling, full curve, poor fit]
17 | CCn1c(=S)[nH]c2cc(S(=O)(=O)N3CCCCC3)ccc21 |  | 8.91 µM [rising, partial curve]
18 | COc1c(Cl)cc(Cl)cc1CNCCO | 20 µM [rising, partial curve, poor fit] | 
19 | Cc1cc(C)c2[nH]c(=O)c(CN(Cc3cccs3)C(=S)NCc3ccco3)cc2c1 | 35.5 µM [rising, single point] | 25.1 µM [rising, single point]

Row | Compound | AC50 [1] | AC50 [2]
20 | N#C/C(=C/c1ccccc1)C(=O)NCc1ccccc1 | 11.2 µM [falling, partial curve] | 11.2 µM [falling, partial curve]
21 | CCN(CCCNc1ncnc2nc[nH]c12)c1cccc(C)c1 |  | 15.8 µM [rising, partial curve]
22 | CC1Cc2ccccc2N1C(=O)CSc1nc(-c2ccccc2)cs1 (centres undefined) |  | 31.6 µM [rising, single point]
23 | CC(C)(Oc1ccc(Cl)cc1)C(=O)NCCCn1ccnc1 |  | 11.2 µM [rising, single point]
24 | Cc1cccc(OCc2ccc(-c3nc(C#N)c(N4CCC(C(N)=O)CC4)o3)o2)c1 | 35.5 µM [falling, single point] | 35.5 µM [falling, single point]
25 | CCOC(=O)c1cccc(NC(=O)Cn2c(=O)nc(-c3ccccc3)c3ccccc32)c1 | 12.6 µM [falling, partial curve, poor fit] | 25.1 µM [falling, partial curve]
26 | O=C(Nc1cc(C(F)(F)F)ccc1Cl)c1cc(S(=O)(=O)NCc2ccccc2)ccc1F | 0.0708 µM [falling, full curve, poor fit] | 
27 | Fc1ccc(NC(=S)NCc2cccs2)cc1 |  | 35.5 µM [rising, single point]
28 | CC(C)CCNC(=O)NC(=O)COc1c(F)c(F)cc(F)c1F | 12.6 µM [rising, partial curve, poor fit] | 
29 | Cc1c(Cl)cccc1-c1ccc(C(=O)N2CCN(c3ccc([N+](=O)[O-])cc3)CC2)o1 | 3.55 µM [rising, full curve, poor fit] | 7.08 µM [rising, full curve]
30 | CC(=O)Nc1cccc(NC(=O)c2ccc([N+](=O)[O-])cc2Cl)c1 | 35.5 µM [rising, single point] | 
31 | Cc1c(C(=O)NCCc2ccc3c(c2)OCCO3)oc2ccccc12 |  | 20 µM [rising, single point]
32 | O=c1[nH]c(SCc2nc3ccccc3c(=O)n2-c2ccccc2C(F)(F)F)nc2ccccc12 |  | 8.91 µM [rising, partial curve]
33 | O=C(Nc1ncc(Cc2cccc([N+](=O)[O-])c2)s1)c1ccco1 | 1.26 µM [rising, full curve, poor fit] | 
34 | Oc1ccc(Cl)cc1-c1cc(-c2ccccc2)n[nH]1 |  | 12.6 µM [rising, partial curve]
35 | O=C(O)COC(=O)Cc1ccccc1Nc1c(Cl)cccc1Cl | 0.0501 µM [falling, full curve] | 0.0447 µM [falling, full curve]
36 | CCCS(=O)(=O)c1nc(S(=O)(=O)c2ccc(C)cc2)c(N2CCc3ccccc3C2)s1 |  | 1.41 µM [rising, partial curve]
37 | N/C(=N\OC(=O)c1cnn(-c2ccccc2)c1C(F)(F)F)c1ccc(C(F)(F)F)cc1 | 12.6 µM [falling, single point] | 15.8 µM [falling, partial curve, poor fit]
38 | Cc1ccc(C)c(N2CCN(C(=O)CCS(=O)(=O)c3cccc4nonc34)CC2)c1 |  | 15.8 µM [rising, single point]

Row | Compound | AC50 [1] | AC50 [2]
39 | Fc1ccccc1Cn1nnc(-c2ccc3c(c2)OCO3)n1 | 3.98 µM [rising, partial curve, poor fit] | 
40 | C/C(=N\NC(=O)c1ccco1)c1cc2ccccc2o1 |  | 11.2 µM [rising, partial curve, poor fit]
41 | Nc1cccc(C(=O)OCC(=O)Nc2cccc3c2C(=O)c2ccccc2C3=O)c1 | 15.8 µM [falling, single point] | 8.91 µM [falling, single point]
42 | COc1ccccc1CCNC(=O)CCn1c(=O)c2cccn2c2ccc(F)cc21 | 0.0501 µM [rising, full curve, poor fit] | 
43 | O=S(=O)(Nc1cccc2ncccc12)c1cccs1 |  | 12.6 µM [rising, partial curve]
44 | CCOc1ccc(NC(=O)COC(=O)C2(C)CC2(Cl)Cl)c([N+](=O)[O-])c1 (centres undefined) |  | 1.26 µM [falling, partial curve]
45 | Clc1nccc2c1ccc1ccccc12 | 25.1 µM [falling, single point] | 5.62 µM [falling, full curve, poor fit]
46 | O=c1[nH]c(NNC(=S)NCc2ccccc2)nc2c1C1(CCCCC1)Cc1ccccc1-2 | 35.5 µM [falling, single point] | 25.1 µM [falling, single point]
47 | CC(C)c1ccccc1OCCNC(=O)c1cncc(Br)c1 |  | 35.5 µM [falling, partial curve, poor fit]
48 | Cc1cccc(NC(=O)CSc2ccc(C(N)=O)cc2[N+](=O)[O-])c1C |  | 0.562 µM [rising, single point]
49 | Cc1c(NC(=O)c2cc(-c3cccs3)nc3ccccc23)c(=O)n(-c2ccccc2)n1C |  | 5.62 µM [rising, full curve, poor fit]
50 | CCC(OC(=O)C1=Cc2ccccc2OC1)C(=O)NC1CCCC1 (centres undefined) | 35.5 µM [rising, single point] | 22.4 µM [rising, partial curve]
51 | COC(=O)c1ccc(O)c(Sc2cc(C(=O)OC)ccc2O)c1 |  | 14.1 µM [rising, partial curve]
52 | COc1ccccc1NC(=S)NC(=O)C(C)(C)C |  | 0.0447 µM [falling, full curve, poor fit]
53 | CCCSc1nc(=O)c2c(n1C)NC(=O)CC2c1cccc(F)c1F (centres undefined) | 0.00708 µM [rising, full curve, poor fit] | 
54 | Cc1ccc(-c2noc(C3CCCN(S(=O)(=O)c4ccc5ccccc5c4)C3)n2)o1 (centres undefined) |  | 17.8 µM [rising, single point]
55 | CSc1ccc(Cl)c(C(=O)OCC(=O)N(C)CCC#N)c1 | 25.1 µM [falling, single point] | 
56 | COc1ccc(NC(=O)N[C@@H](CCSC)C(=O)O)cc1Cl | 12.6 µM [rising, partial curve] | 0.447 µM [rising, full curve, poor fit]

Complete entries, quoted from the list:
CCOc1ccc(NC(=O)COC(=O)C2(C)CC2(Cl)Cl)c([N+](=O)[O-])c1 (centres undefined) as listed: AC50 [2]: 1.26 µM [falling, partial curve]
Cc1ccc(-c2noc(C3CCCN(S(=O)(=O)c4ccc5ccccc5c4)C3)n2)o1 (centres undefined) as listed: AC50 [2]: 17.8 µM [rising, single point]
